In all, about 320,000 compounds went through this assay and about 740 (0.23%) were called active. Inconclusive results, whose numbers are uncertain, are shown with a selection of clear calls. Calls follow the shape of the dose curve; as a rule, active = well fitted activation curve with a large enough effect; inconclusive = small, poorly fitted or top-dose-only effect; inactive = no such curve, though single readings can be large or run the other way. A potency beside an inconclusive call is a rough fit, not a confirmed value.
Assay: qHTS Assay for Small Molecule Inhibitors of Mitochondrial Division or Activators of Mitochondrial Fusion; also: nearly all actives have a fitted effect of over 45% in size
Conditions: S. cerevisiae fusion-defective mutant growth rescue, CellTiterGlo 48 h; series mostly up to 46.1 µM
In short: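 Temperature-sensitive fusion-defective S. cerevisiae (e.g. fzo1-1, mgm1-5) were grown with compound in YPEG medium (3% ethanol, 3% glycerol) for 48 hours at 37C. Growth rescue was measured as viability by CellTiterGlo luminescence after 10 minutes at ambient.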
For CSc1ccc(S(=O)(=O)Nc2cccc(F)c2)cc1, the Potency was inconclusive: 28.2 µM [activator, single point]. In the case of CCOC(=O)c1ccc(NC(=S)N2CCSC2c2ccc(Cl)cc2)cc1 (centres undefined), the Potency is reported as inconclusive: 25.1 µM [activator, single point]. In the case of CCCCN(CC)Cc1ccc(CNC(=S)Nc2cccc(F)c2)o1, the Potency is reported as inconclusive: 3.55 µM [activator, partial curve]. For O=C(O)c1cc2cc(F)ccc2[nH]1, the Potency was inconclusive: 2.51 µM [activator, partial curve]. In the case of COc1ccccc1/C=C/C(=O)Nc1ccc2c(c1)CCC2, the Potency is reported as inconclusive: 17.8 µM [activator, partial curve]. With CN=C1NN=C(c2cc(C)n(-c3c(C)n(C)n(-c4ccccc4)c3=O)c2C)CS1 the Potency was active: 31.6 µM. With O=C(CNc1cccc(S(=O)(=O)N2CCCC2)c1)Nc1cccc(Br)c1 the Potency was “inactive”. In the case of Cc1cc(C(C)(C)C)cc(C)c1Cn1c2[n+](c3ccc(C(F)(F)F)cc31)CCCCC2, the Potency is reported as “inactive”. In the case of CCCCCC1CCC(c2n[nH]c(=S)n2C)CC1 (centres undefined), the Potency is reported as inconclusive: 25.1 µM [activator, single point]. With C=C[C@@H]1c2ccccc2N(S(=O)(=O)c2ccc(C)cc2)[C@H](c2ccc(OC(C)=O)cc2)C1(C#N)C#N the Potency was inconclusive: 17.8 µM [activator, single point]. For COc1ccc(C(=O)NCc2csc(C(C)C)n2)cc1OC1CCN(C(C)=O)CC1, the Potency was inconclusive: 31.6 µM [activator, single point]. In the case of O=C(NNc1c2ccccc2nc2ccccc12)c1ccc(O)cc1, the Potency is reported as “inactive”. For CCn1c(SCC(=O)Nc2nccs2)nnc1-c1ccc(S(=O)(=O)N2CCCCCC2)cc1, the Potency was “inactive”. In the case of Cc1ccc(S(=O)(=O)Nc2cc3c(cc2N2CCOCC2)n(C)c(=O)c(=O)n3C)cc1, the Potency is reported as “inactive”. For CN(C)c1ccnc(Oc2ccc(C(C)(C)C)cc2)c1C#N, the Potency was inconclusive: 12.6 µM [activator, single point]. For O=C(Nc1cc(Sc2nc3ccccc3s2)cc([N+](=O)[O-])c1)c1ccccc1, the Potency was inconclusive: 11.2 µM [activator, partial curve]. For Cc1ccc(Cl)cc1C1=CC(=O)C[C@H](c2ccc(F)cc2)C1, the Potency was inconclusive: 3.16 µM [activator, single point]. In the case of Cc1ccc(SCCNC(=S)Nc2ccc(C)c(C)c2)cc1, the Potency is reported as “inactive”. In the case of N#CC1=C(N)C2=CCCC[C@H]2[C@H](c2ccccc2)C1(C#N)C#N, the Potency is reported as “inactive”. For CC(=O)c1ccc(OC(=O)Cc2cccc3ccccc23)cc1, the Potency was “inactive”. With CCOC(=O)N1CCC(NC(=O)c2ccc3c(Cl)c4c(nc3c2)CCCC4)CC1 the Potency was inconclusive: 35.5 µM [activator, single point]. With Cc1ccc(Cl)c(Cn2cnc3c(cnn3C(C)(C)C)c2=O)c1F the Potency was inconclusive: 17.8 µM [activator, single point]. With Cc1ccc(-n2nc(C)c3c(C)c(CCC(=O)O)c(C)nc32)cc1 the Potency was inconclusive: 17.8 µM [activator, partial curve]. For COc1cccc(-c2cc(C(F)(F)F)nc(-n3ccc([N+](=O)[O-])n3)n2)c1, the Potency was inconclusive: 10 µM [activator, partial curve]. With CC1C2NC(=O)N(Cc3ccccc3)C1(C)Oc1ccccc12 (centres undefined) the Potency was inconclusive: 14.1 µM [activator, partial curve]. With O=C(NC1CCCC1)c1cccc(Cn2cc([N+](=O)[O-])cn2)c1 the Potency was “inactive”. In the case of Cc1nc(C)c(-c2ccc(SCc3cccc(F)c3)nn2)s1, the Potency is reported as inconclusive: 35.5 µM [activator, single point]. For CN(CCC#N)C(=S)NC(=O)c1ccc(S(=O)(=O)N2CCOCC2)cc1, the Potency was “inactive”. In the case of CC(C)(C)C(=O)Cn1ncc(Cl)c(Cl)c1=O, the Potency is reported as “inactive”. With CC(C)(C)C1=NN=C2c3ccccc3C(=O)C21 (centres undefined) the Potency was inconclusive: 12.6 µM [activator, partial curve]. With COc1ccc(Nc2nc(N)nc(CSC(=S)N3CCN(c4ccccc4)CC3)n2)cc1 the Potency was inconclusive: 2.82 µM [activator, full curve]. With CC(C)(CN1CCc2ccccc2C1)NS(=O)(=O)c1ccc(Cl)cc1 the Potency was “inactive”. In the case of O=C(c1ccc(Cl)cc1[N+](=O)[O-])N(Cc1ccccc1)Cc1ccccc1, the Potency is reported as inconclusive: 11.2 µM [activator, partial curve]. For N/C(=N\OC(=O)c1ccc(Cl)cc1)c1ccc(Cl)cc1, the Potency was inconclusive: 11.2 µM [activator, partial curve]. With COc1ccc(C(=O)NCc2nnc(SCC(=O)NCc3ccco3)o2)cc1OC the Potency was “inactive”. In the case of C/C(=N\Nc1ccc(Cl)c(C(=O)O)c1)c1ccccn1, the Potency is reported as “inactive”. For Cc1ccc(CC2CC(=O)N(c3nc4ccccc4s3)C2=O)cc1 (centres undefined), the Potency was “inactive”. With COc1cccc(CSc2nnc(CSc3nc4nc(C)cc(C)n4n3)s2)c1 the Potency was “inactive”. With Cc1ccccc1/C=N/n1c(COc2ccccc2)n[nH]c1=S the Potency was “inactive”. In the case of Cc1ccc(NC(=O)Cn2cc(C(F)(F)F)cc(Cl)c2=O)cc1S(=O)(=O)N1CCCCC1, the Potency is reported as “inactive”. With COC(=O)C(CC(C)C)Oc1ccc2c(C)cc(=O)oc2c1 (centres undefined) the Potency was inconclusive: 12.6 µM [activator, partial curve]. For O=C(CSc1ncnc2ccccc12)c1ccco1, the Potency was “inactive”. For Brc1ccc2nc(-c3ccncc3)c(NC3CCCC3)n2c1, the Potency was “inactive”. In the case of COc1cc(/C=N/Nc2nc3ccccc3[nH]c2=O)ccc1O, the Potency is reported as inconclusive: 35.5 µM [activator, single point]. In the case of COC(=O)c1ccc(N=Nc2ccccc2)cc1, the Potency is reported as “inactive”. In the case of CCCCn1c(N)c(N(CCC(C)C)C(=O)C2=NN(c3ccccc3)C(=O)CC2)c(=O)[nH]c1=O, the Potency is reported as “inactive”. For CC1Cc2ccccc2N1C(=O)CN(C)CC(=O)Nc1ccc(OC(F)(F)F)cc1 (centres undefined), the Potency was inconclusive: 17.8 µM [activator, single point]. With CCOc1ccccc1NC(=O)C(OC(=O)c1cc(C)oc1C)c1ccccc1 (centres undefined) the Potency was inconclusive: 31.6 µM [activator, single point]. For CCCOc1ccccc1NC(=O)c1ccc([N+](=O)[O-])cc1, the Potency was inconclusive: 35.5 µM [activator, single point].
Potency is read from the fitted curve at half-maximal effect.
